One test has as its target mRFP-GABARAP (UniProt O95166). The test can be described thus: recruitment of LIR-GFP or gProbe to mRFP-mATG8-containing autophagic membranes (A:C ratio), microscopy; LIR(X)-GFP or gProbe-X co-expressed with one mRFP-mATG8 in HKO HeLa cells; 100 nM BafA1 in EBSS for 2 h; fixed in 4% PFA; autophagosome:cytosol GFP ratio normalized to GFP-expressing cells.
For another test, the target named is mRFP-GABARAPL2 (UniProt P60520). The test is described as above.
The next test addresses GST-GABARAPL2 (UniProt P60520). The test can be described thus: pull-down; purified GST-mATG8 on glutathione agarose beads, lysate of HEK293T cells expressing LIR-GFP; overnight at 4°C; 50 mM Tris-HCl pH 7.5, 150 mM NaCl, 2 mM EDTA, 1% Triton X-100; anti-GFP blot; only the target purified.
The target in a further test is GST-LC3C (UniProt Q9BXW4). Put plainly: pull-down; only the target purified.
Another test deals with mRFP-LC3C (UniProt Q9BXW4). Put plainly: recruitment of LIR-GFP or gProbe to mRFP-mATG8-containing autophagic membranes (A:C ratio), microscopy; LIR(X)-GFP or gProbe-X co-expressed with one mRFP-mATG8 in HKO HeLa cells; 100 nM BafA1 in EBSS for 2 h; fixed in 4% PFA; autophagosome:cytosol GFP ratio normalized to GFP-expressing cells.
In another test the target is LC3C V26G (UniProt Q9BXW4). Described as above.
Test [1] deals with LC3C K32/F33 to Q/H mutant (UniProt Q9BXW4). The description is as above.

The chains behind the UniProt entries cited, without tags or fusion partners. Where a name states a change or a piece, a line headed by the entry shows the natural chain unless it says otherwise. A line that says so, or that is headed by a name, gives the form on record, which may keep a tag or linker. Residues count along the entry.
UniProt P60520: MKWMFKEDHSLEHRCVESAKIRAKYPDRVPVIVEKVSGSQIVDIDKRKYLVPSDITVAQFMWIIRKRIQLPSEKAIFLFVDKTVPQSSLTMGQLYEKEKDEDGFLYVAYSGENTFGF
mRFP-LC3C (Q9BXW4, residues 1-126): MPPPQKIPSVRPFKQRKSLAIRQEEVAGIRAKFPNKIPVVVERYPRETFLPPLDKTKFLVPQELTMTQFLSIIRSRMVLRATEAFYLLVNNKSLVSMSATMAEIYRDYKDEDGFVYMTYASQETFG
LC3C V26G (Q9BXW4, form named): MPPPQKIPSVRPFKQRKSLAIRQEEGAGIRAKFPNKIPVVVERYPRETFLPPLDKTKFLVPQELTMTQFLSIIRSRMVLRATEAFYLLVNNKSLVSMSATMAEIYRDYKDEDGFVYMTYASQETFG
LC3C K32/F33 to Q/H mutant (Q9BXW4, form named): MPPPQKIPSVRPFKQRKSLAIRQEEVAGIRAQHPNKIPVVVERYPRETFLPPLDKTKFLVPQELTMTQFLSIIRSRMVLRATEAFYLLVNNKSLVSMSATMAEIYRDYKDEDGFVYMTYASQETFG

These are yes or no findings as the source states them, for the method shown. For some of these results: Binding seen in cells or lysates may run through a third protein. Some results given as binding are weak or reduced against the parent protein; the word gives no strength. Where a sequence is shown, tags or fusion partners need not be part of it.

B1: LIR(Sp)-GFP (domain or fragment)
chain: LQFEIDDEMEPLYNQAKQMRYGDY
For the molecule B1, the binding entry with mRFP-GABARAP was “binds weakly”; with mRFP-GABARAPL2, “binds”; with GST-GABARAPL2 it was “binds”.

B2: LIR(TP[T])-GFP (domain or fragment)
chain: FVSEEDEVDGTLIIDLPDSYAAPPS
Take B2: the binding entry (with GST-LC3C; in the test with mRFP-LC3C; with LC3C V26G; in test [1]) was “binds” each time.

These data come from article PMC10240976.
